Laboratory results reported in US20220033512A1 (University of California, published 2022).
These are yes or no findings as the source states them, for the method shown. Some entries that bind do so weakly or less than the wild type.

Legend:
[1] = biological target: T1, human ENPP1, full length, over-expressed on HEK cells (human) (UniProt P22413); experiment: clone comparison; FIG. 15 flow cytometry on HEK cells over-expressing ENPP1
T1 sequence (looked up): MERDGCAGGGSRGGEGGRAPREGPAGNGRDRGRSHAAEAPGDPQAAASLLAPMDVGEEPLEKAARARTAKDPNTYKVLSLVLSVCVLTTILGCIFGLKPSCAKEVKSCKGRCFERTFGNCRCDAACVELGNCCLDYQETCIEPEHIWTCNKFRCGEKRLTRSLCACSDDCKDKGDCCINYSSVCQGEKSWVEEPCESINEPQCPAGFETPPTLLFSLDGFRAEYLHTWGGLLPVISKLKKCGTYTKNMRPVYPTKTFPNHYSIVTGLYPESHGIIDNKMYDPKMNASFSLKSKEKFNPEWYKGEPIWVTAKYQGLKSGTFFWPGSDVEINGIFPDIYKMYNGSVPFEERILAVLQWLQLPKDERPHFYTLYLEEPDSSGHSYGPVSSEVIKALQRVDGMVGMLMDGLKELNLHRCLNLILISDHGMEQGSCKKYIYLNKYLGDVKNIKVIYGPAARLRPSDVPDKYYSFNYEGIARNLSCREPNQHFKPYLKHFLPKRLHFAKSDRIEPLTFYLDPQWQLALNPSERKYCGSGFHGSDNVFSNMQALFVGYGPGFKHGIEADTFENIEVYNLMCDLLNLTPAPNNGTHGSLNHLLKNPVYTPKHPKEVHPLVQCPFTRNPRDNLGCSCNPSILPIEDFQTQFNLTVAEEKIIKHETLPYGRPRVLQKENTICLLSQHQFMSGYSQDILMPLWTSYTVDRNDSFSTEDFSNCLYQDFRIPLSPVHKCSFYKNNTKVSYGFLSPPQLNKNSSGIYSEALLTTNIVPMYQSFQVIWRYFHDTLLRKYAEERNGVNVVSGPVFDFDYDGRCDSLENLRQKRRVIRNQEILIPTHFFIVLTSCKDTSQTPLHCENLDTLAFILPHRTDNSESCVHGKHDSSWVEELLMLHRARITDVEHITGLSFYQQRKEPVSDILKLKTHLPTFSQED

[2] = biological target: T1, human ENPP1, full length, over-expressed on HEK cells (human); experiment: flow cytometry (mean fluorescence intensity) on HEK cells over-expressing full length human ENPP1

B1: 12-J-4 ENPP1 monoclonal antibody (antibody, V domains shown)
VH: EVMLVESGGGLVKPGGSLKLSCVASGFTFSSYTMSWVRQTPEKRLEWVATISGGGGNTYYPDSVKGRFTISRDNAKNTLYLQMSSLRSEDTALYYCARRHYGSSPYAMDYWGQGTSVTVSS
VL: DIQMTQTTSSLSASLGDRVTISCRASQDISNYLNWYQQKPDGTVKLLIYHKTRLHSGVPSRFSGSGSGTDYSLTISNLEQEDIATYFCQQGNMLPWTFGGGTKLEIK
notes: The antibody is a recombinant IgG1kappa made in a CHO cell line, from a hybridoma raised against human recombinant ENPP1; Heavy chain about 48 kD, light chain about 24 kD; also called ENPP1 mAb; ENPP1mAb
For B1, the binding [1] was “binds” and the binding [2] was “binds”.
